Literature values, collected in article PMC9293725 (Computational and Structural Biotechnology Journal, 2022).

System: P. falciparum W2 strain
Conditions: read-out: EC50 P. falciparum W2 strain; cited from earlier work

C[S+]([O-])c1ccc(-c2nc(-c3ccncc3)c(-c3ccc(F)cc3)[nH]2)cc1 (stereo not shown) [SB203580]
EC50: 12 nM
